According to paper PMC4826232:
Results are given in words; binding and its absence hold for the method and conditions named. In cells and extracts the contact can be indirect. Some results given as binding are weak or reduced against the parent protein; the word gives no strength.

Sequences of proteins named here, by UniProt entry; tags and fusion partners are left off. A change or cut given only in a name is not applied to a line headed by its entry.
UniProt P30086: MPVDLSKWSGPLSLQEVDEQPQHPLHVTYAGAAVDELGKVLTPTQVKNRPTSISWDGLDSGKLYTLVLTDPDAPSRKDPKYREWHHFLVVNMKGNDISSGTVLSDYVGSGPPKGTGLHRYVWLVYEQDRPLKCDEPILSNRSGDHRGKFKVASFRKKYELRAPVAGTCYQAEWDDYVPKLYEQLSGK
UniProt P46531: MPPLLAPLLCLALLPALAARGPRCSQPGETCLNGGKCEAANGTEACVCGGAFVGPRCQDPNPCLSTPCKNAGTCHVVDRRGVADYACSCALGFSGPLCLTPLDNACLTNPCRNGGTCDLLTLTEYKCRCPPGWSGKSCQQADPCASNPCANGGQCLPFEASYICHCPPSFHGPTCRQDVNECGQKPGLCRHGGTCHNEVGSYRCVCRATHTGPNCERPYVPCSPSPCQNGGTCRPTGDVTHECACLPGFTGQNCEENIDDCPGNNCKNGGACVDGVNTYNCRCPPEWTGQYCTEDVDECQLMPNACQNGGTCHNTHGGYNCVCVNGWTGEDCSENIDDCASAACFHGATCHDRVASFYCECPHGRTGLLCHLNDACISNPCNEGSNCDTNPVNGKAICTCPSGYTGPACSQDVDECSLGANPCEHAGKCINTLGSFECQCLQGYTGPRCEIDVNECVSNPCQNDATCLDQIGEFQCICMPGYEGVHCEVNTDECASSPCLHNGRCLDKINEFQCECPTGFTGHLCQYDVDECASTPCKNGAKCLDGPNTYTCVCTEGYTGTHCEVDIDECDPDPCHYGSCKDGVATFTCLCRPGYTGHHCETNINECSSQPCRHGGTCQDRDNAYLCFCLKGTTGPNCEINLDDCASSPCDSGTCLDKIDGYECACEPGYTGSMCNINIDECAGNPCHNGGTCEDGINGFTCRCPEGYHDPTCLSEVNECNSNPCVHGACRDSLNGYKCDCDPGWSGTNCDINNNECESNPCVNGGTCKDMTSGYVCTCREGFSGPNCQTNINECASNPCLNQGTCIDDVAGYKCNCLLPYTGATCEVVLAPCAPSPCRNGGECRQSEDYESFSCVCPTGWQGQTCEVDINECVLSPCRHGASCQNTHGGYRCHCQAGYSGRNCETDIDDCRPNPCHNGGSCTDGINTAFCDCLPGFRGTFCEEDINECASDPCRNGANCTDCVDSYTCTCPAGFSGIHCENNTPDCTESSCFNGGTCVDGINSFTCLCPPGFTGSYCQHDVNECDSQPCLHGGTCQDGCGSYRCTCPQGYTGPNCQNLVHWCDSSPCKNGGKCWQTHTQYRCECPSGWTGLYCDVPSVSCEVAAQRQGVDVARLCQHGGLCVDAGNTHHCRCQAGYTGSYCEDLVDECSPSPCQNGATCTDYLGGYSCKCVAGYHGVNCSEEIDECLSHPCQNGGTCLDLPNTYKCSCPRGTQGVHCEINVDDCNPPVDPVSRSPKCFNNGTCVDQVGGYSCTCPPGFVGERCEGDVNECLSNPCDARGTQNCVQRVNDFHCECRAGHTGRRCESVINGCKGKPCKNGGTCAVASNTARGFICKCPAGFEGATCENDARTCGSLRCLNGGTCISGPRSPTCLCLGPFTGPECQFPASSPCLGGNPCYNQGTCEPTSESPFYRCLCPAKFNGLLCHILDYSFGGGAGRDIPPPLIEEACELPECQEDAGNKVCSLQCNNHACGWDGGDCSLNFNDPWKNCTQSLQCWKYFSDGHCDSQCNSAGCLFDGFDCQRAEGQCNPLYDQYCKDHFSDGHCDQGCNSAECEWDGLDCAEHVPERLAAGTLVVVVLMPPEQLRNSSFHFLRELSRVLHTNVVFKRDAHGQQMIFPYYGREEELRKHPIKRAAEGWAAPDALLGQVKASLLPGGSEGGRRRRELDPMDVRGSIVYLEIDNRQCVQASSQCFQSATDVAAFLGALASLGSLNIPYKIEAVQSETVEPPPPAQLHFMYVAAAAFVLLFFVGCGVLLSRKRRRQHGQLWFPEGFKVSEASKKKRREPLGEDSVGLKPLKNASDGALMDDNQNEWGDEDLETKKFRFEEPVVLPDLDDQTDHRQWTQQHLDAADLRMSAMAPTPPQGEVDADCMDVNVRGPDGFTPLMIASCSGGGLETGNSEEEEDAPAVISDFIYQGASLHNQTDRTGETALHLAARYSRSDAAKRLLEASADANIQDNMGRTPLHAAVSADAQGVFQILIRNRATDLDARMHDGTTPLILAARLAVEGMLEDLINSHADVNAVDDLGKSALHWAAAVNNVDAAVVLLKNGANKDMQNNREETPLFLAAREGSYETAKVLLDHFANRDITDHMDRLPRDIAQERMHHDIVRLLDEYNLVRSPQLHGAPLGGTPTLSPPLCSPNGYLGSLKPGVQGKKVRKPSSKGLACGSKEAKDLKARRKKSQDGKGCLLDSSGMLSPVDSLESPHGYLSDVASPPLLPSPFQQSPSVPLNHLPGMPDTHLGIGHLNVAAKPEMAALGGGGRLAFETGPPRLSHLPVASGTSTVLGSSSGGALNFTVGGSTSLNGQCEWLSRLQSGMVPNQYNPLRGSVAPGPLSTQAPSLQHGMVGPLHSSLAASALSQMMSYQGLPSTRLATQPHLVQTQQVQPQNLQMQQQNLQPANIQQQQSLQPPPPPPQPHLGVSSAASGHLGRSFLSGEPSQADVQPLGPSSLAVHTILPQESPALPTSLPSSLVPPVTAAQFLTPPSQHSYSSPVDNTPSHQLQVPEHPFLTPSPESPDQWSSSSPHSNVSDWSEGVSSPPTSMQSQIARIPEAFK

Target: FLAG-tagged Raf kinase inhibitory protein (RKIP) (human) (UniProt P30086)
Experiment: co-IP; total cell lysates (1 mg) of H1299 or HeLa cells stably overexpressing FLAG-RKIP; IP with anti-FLAG M2 agarose beads, immunoblot with anti-Notch1 antibodies; control cells with pcDNA

binding	Substance
no binding	Notch1 intracellular domain (NICD), 110 kDa fragment (from UniProt P46531 1754-2555) (domain or fragment)
binds	full-length (FL) Notch1 (300 kDa) (from UniProt P46531 19-2555) (receptor)
